From doi:10.1101/2021.05.22.445289
Results are given in words; binding and its absence hold for the method and conditions named. Binding seen in cells or lysates may run through a third protein. Where a sequence is shown, tags or fusion partners need not be part of it.

The chains behind the UniProt entries cited, without tags or fusion partners.
UniProt P55258: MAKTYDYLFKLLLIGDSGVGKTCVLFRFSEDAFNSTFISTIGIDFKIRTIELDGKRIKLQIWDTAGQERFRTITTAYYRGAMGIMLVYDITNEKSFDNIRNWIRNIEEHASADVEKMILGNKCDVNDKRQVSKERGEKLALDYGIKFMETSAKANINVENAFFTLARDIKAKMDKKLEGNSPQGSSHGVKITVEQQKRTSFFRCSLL
UniProt Q640N2: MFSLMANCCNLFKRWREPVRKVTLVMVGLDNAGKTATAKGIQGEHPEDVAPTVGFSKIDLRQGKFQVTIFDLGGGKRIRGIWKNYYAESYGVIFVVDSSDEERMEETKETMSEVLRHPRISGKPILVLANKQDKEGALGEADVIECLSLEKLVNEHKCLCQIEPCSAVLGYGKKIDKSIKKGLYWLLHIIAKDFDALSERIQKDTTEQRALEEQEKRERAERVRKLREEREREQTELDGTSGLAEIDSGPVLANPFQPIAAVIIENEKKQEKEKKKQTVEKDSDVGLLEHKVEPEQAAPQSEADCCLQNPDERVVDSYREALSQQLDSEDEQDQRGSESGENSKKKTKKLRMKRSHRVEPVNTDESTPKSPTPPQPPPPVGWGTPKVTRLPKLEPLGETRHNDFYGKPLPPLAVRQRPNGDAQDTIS

Molecular target: T1, 3xFlag-TST (Twin-Strep-tag)-tagged Tmem138 (mouse) (UniProt Q9D6G5)
T1 sequence: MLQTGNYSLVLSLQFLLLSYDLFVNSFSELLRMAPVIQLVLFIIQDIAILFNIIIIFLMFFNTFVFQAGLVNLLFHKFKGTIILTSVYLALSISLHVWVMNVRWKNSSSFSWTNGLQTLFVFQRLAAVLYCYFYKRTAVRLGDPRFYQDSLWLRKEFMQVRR
Assay: pull-down

| binding | Substance |
| --- | --- |
| no binding | Rab8a-Flag (from UniProt P55258 1-207) |
| no binding | Arl13b-Flag (from UniProt Q640N2 1-427) |
